Source: the supplement of paper PMC7125110
± gives the standard error. Many of these values have a large error.

B1: glmS ribozyme (parent)
chain: AUAAAAGCGCCAGAACUACAGAAAUGUAGUUGACGAGGAGGAGGUUUAUCGAAUUUUCGGCGGAUGCCUCCAAA

Variants of: B1
Test: self-cleavage kobs at 640 uM GlcN6P; higher = faster cleavage; RNA array
Conditions: with glucosamine-6-phosphate
Method in brief: (§1)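 Glucosamine-6-phosphate, from 40 μM to 10 mM in HEPES/KCl/Mg(OAc)2 buffer, was flowed over sequenced MiSeq chips carrying barcoded ribozyme variants transcribed in situ by E. coli RNA polymerase. A hybridised Cy3 probe tracked the variants at 37 °C as tiles were imaged over ~14 h. kobs, kcat and KM were obtained by fitting normalised per-tile medians to exponential decays and then applying weighted Michaelis–Menten fits across concentrations.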

Variant | self-cleavage kobs at 640 uM GlcN6P
G37U A48U C70G | 3.63e-05 ± 2.3e-05 s⁻¹
U31C U55G G66U U69G C71G | 0.000163 ± 8.4e-05 s⁻¹
C10U C16G C68G | 3.57e-05 ± 2.7e-05 s⁻¹
A12C A14U A53C | 5.48e-05 ± 3.9e-05 s⁻¹
G38U G59C U69G | 4.12e-05 ± 2.4e-05 s⁻¹
C11U A48G C68G | 0.00087 ± 0.00047 s⁻¹
C11A A15U | 2.34e-05 ± 1.9e-05 s⁻¹
C16A C50U U56C C58U U65A C71A | 5.68e-05 ± 3.1e-05 s⁻¹
A52C C70G C71G | 2.9e-05 ± 2.1e-05 s⁻¹
G29A G63C C68G | 5.51e-05 ± 4.8e-05 s⁻¹
G40A G43C U47C C50G U65C | 5.22e-05 ± 4.3e-05 s⁻¹
C50U U69G | 2.54e-05 ± 1.7e-05 s⁻¹
A15U C16G C58A | 3.41e-05 ± 1.9e-05 s⁻¹
G62U C70A | 2.03e-05 ± 1.8e-05 s⁻¹
G32A G44C C67U | 1.75e-05 ± 1.7e-05 s⁻¹
C11A G38A C67G | 3.42e-05 ± 2e-05 s⁻¹
A53G C58A C68G | 3.65e-05 ± 1.9e-05 s⁻¹
G29C U45C | 2.25e-05 ± 1.4e-05 s⁻¹
G29A C58U U65G U69C | 3.25e-05 ± 2e-05 s⁻¹
U31G G32C G66A | 2.47e-05 ± 1.5e-05 s⁻¹

Variants of: B1
Test: self-cleavage kobs at 2500 uM GlcN6P; higher = faster cleavage; RNA array
Conditions: with glucosamine-6-phosphate
Method in brief: as §1

Variant | self-cleavage kobs at 2500 uM GlcN6P
U31C U55G G66U U69G C71G | 5.17e-05 ± 2.8e-05 s⁻¹
C10U C16G C68G | 2.72e-05 ± 2.5e-05 s⁻¹
G62C C68A | 1.73e-05 ± 1.7e-05 s⁻¹
A14G C16U U46C | 0.00449 ± 0.0025 s⁻¹
A6G C67G C68A | 1.77e-05 ± 1.6e-05 s⁻¹
C16U C50G A53U U55A | 3.45e-05 ± 2.2e-05 s⁻¹
G38U G59C U69G | 5.19e-05 ± 3.9e-05 s⁻¹
C8A A15G G37A C70G | 2.5e-05 ± 2.4e-05 s⁻¹
U31C C61G | 3.24e-05 ± 2.6e-05 s⁻¹
G29U A48C | 1.8e-05 ± 1.3e-05 s⁻¹
C10A G13C C61G G66A C70A | 7.1e-05 ± 4.2e-05 s⁻¹
A53C G63A U65A C70A | 8e-05 ± 4.2e-05 s⁻¹
G29U G51A C68G | 3.17e-05 ± 2.6e-05 s⁻¹
C68A U69G | 2.92e-05 ± 1.8e-05 s⁻¹
G40A G43C U47C C50G U65C | 2.76e-05 ± 2.7e-05 s⁻¹
A36U G66U C68G C70U | 0.00027 ± 0.00015 s⁻¹
U49A A52U U65A U69G | 6.03e-05 ± 3.1e-05 s⁻¹
U57G U69A | 3.54e-05 ± 1.9e-05 s⁻¹
C11G G37C C50G A53U | 3.19e-05 ± 2.9e-05 s⁻¹
G35U C67G C68G | 4.04e-05 ± 2.1e-05 s⁻¹

Variant | self-cleavage kobs at 2500 uM GlcN6P
C61G C67A | 2.4e-05 ± 1.6e-05 s⁻¹
C11A G38A C67G | 0.000276 ± 0.00019 s⁻¹
U57C C58A C70U | 1.76e-05 ± 1.7e-05 s⁻¹
A36G G38U C68G | 5.42e-05 ± 3.2e-05 s⁻¹
U30A A52U U69G | 2.99e-05 ± 2.3e-05 s⁻¹
U55A C58U | 1.85e-05 ± 1.8e-05 s⁻¹
G40U U46A G66U | 3.92e-05 ± 2e-05 s⁻¹
C61A G66U C68G | 3.57e-05 ± 1.9e-05 s⁻¹
A64U G66C | 2.1e-05 ± 1.5e-05 s⁻¹
A6G U45G | 2.67e-05 ± 2.5e-05 s⁻¹
C50U U56G | 1.48e-05 ± 1.3e-05 s⁻¹
G13A G37A | < 1e-05 s⁻¹
C10U G63A C70U | 2.92e-05 ± 2.6e-05 s⁻¹
G41A U54G C58G C70U | 1.88e-05 ± 1.7e-05 s⁻¹
U31C G37C C70A | 3.57e-05 ± 2.9e-05 s⁻¹
U31C G51A A53U C70G | 3.64e-05 ± 3.3e-05 s⁻¹
C8G C11G A14C A39G C50G | 3.16e-05 ± 2.3e-05 s⁻¹
A12G U30G A53U | 1.42e-05 ± 1.4e-05 s⁻¹
A14G C61U C70U | 2.12e-05 ± 1.4e-05 s⁻¹
C16G G29U A33C A39U | 3.94e-05 ± 2.6e-05 s⁻¹

Variants of: B1
Test: self-cleavage kobs at 160 uM GlcN6P; higher = faster cleavage; RNA array
Conditions: with glucosamine-6-phosphate
Method in brief: as §1

Variant | self-cleavage kobs at 160 uM GlcN6P
C10U C16G C68G | 3.41e-05 ± 2.3e-05 s⁻¹
A12C A64G | 4.27e-05 ± 2.2e-05 s⁻¹
G29A U65A | 1.97e-05 ± 1.6e-05 s⁻¹
G38U G59C U69G | 2.57e-05 ± 2.5e-05 s⁻¹
A14U G40A A53C C71A | 2.27e-05 ± 1.7e-05 s⁻¹
A53C U57A U69A | 2.65e-05 ± 2.3e-05 s⁻¹
A14U U30G G40A | 4.08e-05 ± 2.3e-05 s⁻¹
U56A C58U G59A C67G | 4.15e-05 ± 3.5e-05 s⁻¹
U30C G32C | 3.89e-05 ± 2e-05 s⁻¹
G40C U45C | 2.01e-05 ± 2e-05 s⁻¹
U31C G32C | 4.69e-05 ± 2.4e-05 s⁻¹
G7U A53G U69G | 0.000467 ± 0.00029 s⁻¹
A15G G29U C70G | 9.13e-05 ± 4.8e-05 s⁻¹
C61G C67A | 2.3e-05 ± 1.7e-05 s⁻¹
A53C U69A | 1.8e-05 ± 1.6e-05 s⁻¹
C11A G38A C67G | 2.76e-05 ± 2.1e-05 s⁻¹
C34G U56G C70U | 2.57e-05 ± 2.1e-05 s⁻¹
A15U C68G | 1.62e-05 ± 1.6e-05 s⁻¹
G29C U55G | 1.89e-05 ± 1.2e-05 s⁻¹
U55A C58A | 1.68e-05 ± 1.1e-05 s⁻¹
U45A A64U | 3.02e-05 ± 2e-05 s⁻¹

5 records drawn at random from those above:
Variant | self-cleavage kobs at 160 uM GlcN6P
A14U U30G G40A | 4.08e-05 ± 2.3e-05 s⁻¹
U56A C58U G59A C67G | 4.15e-05 ± 3.5e-05 s⁻¹
G29A U65A | 1.97e-05 ± 1.6e-05 s⁻¹
C11A G38A C67G | 2.76e-05 ± 2.1e-05 s⁻¹
C34G U56G C70U | 2.57e-05 ± 2.1e-05 s⁻¹

Variants of: B1
Test: self-cleavage kobs at 40 uM GlcN6P; higher = faster cleavage; RNA array
Conditions: with glucosamine-6-phosphate
Method in brief: as §1

Variant | self-cleavage kobs at 40 uM GlcN6P
C50A C67U C68U | 2.75e-05 ± 2.1e-05 s⁻¹
C50U U69G | 2.12e-05 ± 1.4e-05 s⁻¹
G29C C50G C61U | 4.42e-05 ± 3.1e-05 s⁻¹
A36G G38U C68G | 2.79e-05 ± 2.4e-05 s⁻¹
G29A A52G C67G | 3.69e-05 ± 2e-05 s⁻¹
A52G U54G | 2.78e-05 ± 1.5e-05 s⁻¹

Variants of: B1
Test: self-cleavage kobs at 10000 uM GlcN6P; higher = faster cleavage; RNA array
Conditions: with glucosamine-6-phosphate
Method in brief: as §1

Variant | self-cleavage kobs at 10000 uM GlcN6P
C11U A48G C68G | 0.000714 ± 0.00049 s⁻¹
C10U G13C C16A G59C C68G C70U | 2.04e-05 ± 1.6e-05 s⁻¹
G29C C50G C61U | 3.24e-05 ± 1.8e-05 s⁻¹
C50U U56G | 1.74e-05 ± 1.1e-05 s⁻¹
C8U C11U G29U C58G C68U | 0.00242 ± 0.0015 s⁻¹
